Data taken from PubChem BioAssay AID2685 (National Center for Advancing Translational Sciences (NCATS), 2010).
This is one part of the list. These are further read-outs of the screen, such as a control signal, another cell line or another target. No call is given for them. The list favours compounds with an active or inconclusive main result. The note in brackets gives the kind of curve behind each potency; many fits are weak.

Assay: qHTS Assay for Lipid Storage Modulators in Drosophila S3 Cells;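 as to cell number change: cells counted by Cell Tracker Red CMTPX staining in the red channel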
Details: BODIPY lipid droplet fluorescence, 18-24 h; for cell number change: measured here: cell count max response, cells fed with added oleic acid
Procedure, shortened: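 Drosophila S3 cells got compounds at several concentrations plus oleic acid (400 uM solution). Laser-scanning cytometry with 488 nm excitation read lipid droplets at 500-530 nm and cells at 575-640 nm. Percent activity was relative to 20 uM Triacsin C.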

[1] = measured here: lipid fluorescence (Fed channel) AC50, cells fed with added oleic acid
[2] = measured here: cell number channel AC50, cells fed with added oleic acid

Compound: CN(Cc1ccccc1)C(=O)c1nn2cccnc2c1Cl
- AC50 [1]: 0.206 µM [rising, full curve, poor fit]

Compound: CCC(=O)NC(=S)Nc1ccc(NC(=O)c2cccnc2)cc1
- cell number change: -30.8%
- AC50 [2]: 23.1 µM [falling, single point]
- AC50 [1]: 14.6 µM [falling, partial curve]

Compound: O=C(CSc1ccccc1)Nc1ccc(S(=O)(=O)NCC2CCCO2)cc1 (centres undefined)
- cell number change: -15.6%

Compound: O=C(O)c1cccc(NS(=O)(=O)c2cccc3nsnc23)c1
- cell number change: 1.26%
- AC50 [1]: 29.1 µM [falling, single point]

Compound: Cc1ccc(Cl)c(NC(=O)COC(=O)C2CCC2)c1Cl
- cell number change: -1%

Compound: O=C(COc1ccccc1[N+](=O)[O-])Nc1ccc2c(c1)OCO2
- cell number change: -17.5%

Compound: Cc1ccc(S(=O)(=O)c2c(C)nn(-c3ccccc3)c2OC(=O)c2ccco2)cc1
- cell number change: -29.8%
- AC50 [2]: 0.00461 µM [falling, full curve, poor fit]

Compound: Nc1cc(OC(=O)c2ccc(F)cc2)nn1S(=O)(=O)c1ccc(F)cc1
- cell number change: 18.5%
- AC50 [1]: 2.91 µM [rising, single point]

Compound: CC1=CC(c2ccccc2)n2nc(NC(=O)CCCC(=O)O)nc2N1 (centres undefined)
- cell number change: 90.1%
- AC50 [2]: 20.6 µM [rising, partial curve]

Compound: Cc1ccc(NC(=O)COC(=O)CN2C(=O)NC(C)(C)C2=O)cc1S(=O)(=O)N1CCOCC1
- cell number change: 73.2%
- AC50 [2]: 20.6 µM [rising, single point]

Compound: Cc1ccc(S(=O)(=O)N(C)c2ccc(C(=O)N3CCC(C(N)=O)CC3)cc2)cc1
- AC50 [1]: 3.26 µM [falling, single point]

Compound: CC(Nc1nc(-c2ccccc2O)nc2ccccc12)c1ccccc1 (centres undefined)
- cell number change: 15.2%
- AC50 [2]: 3.66 µM [rising, single point]
- AC50 [1]: 3.66 µM [rising, full curve]

Compound: Cc1cc(C)n(CC(=O)c2ccccc2)c(=O)c1C#N
- cell number change: -18.7%
- AC50 [2]: 0.13 µM [falling, full curve, poor fit]
- AC50 [1]: 29.1 µM [rising, single point]

Compound: CCOC(=O)C1CCCN(C(=O)C2CCN(S(=O)(=O)c3cnc[nH]3)CC2)C1 (centres undefined)
- cell number change: -22.2%
- AC50 [1]: 23.1 µM [falling, partial curve]

Compound: CC1CCCN(CC(=O)Nc2cc(Cl)ccc2Oc2ccccc2)C1 (centres undefined)
- cell number change: 7.14%

Compound: CC1=C(C(=O)OC2CCCCC2)C(c2cccnc2)n2nnnc2N1 (centres undefined)
- cell number change: -50.5%
- AC50 [2]: 20.6 µM [falling, single point]
- AC50 [1]: 18.4 µM [falling, single point]

Compound: CC1(c2ccc3ccccc3c2)NC(=O)N(CC(=O)N2CCN(Cc3ccccc3)CC2)C1=O (centres undefined)
- cell number change: -31.6%
- AC50 [2]: 13 µM [falling, partial curve]

Compound: CCc1n[nH]c2c1/C(=N\O)CC(c1ccccc1)C2 (centres undefined)
- cell number change: -6.56%
- AC50 [1]: 0.00517 µM [rising, full curve, poor fit]

Compound: O=C(Nc1ccc2c(c1)OCCO2)C1CCCN(c2ncccn2)C1 (centres undefined)
- cell number change: 20.8%
- AC50 [1]: 0.461 µM [rising, partial curve]

Compound: NS(=O)(=O)c1ccc(NC(=O)COC(=O)/C=C/c2ccc([N+](=O)[O-])cc2)cc1
- cell number change: -35.8%
- AC50 [2]: 6.51 µM [falling, full curve, poor fit]
- AC50 [1]: 4.61 µM [falling, full curve]

Compound: COc1cccc(N(CC(=O)NC(C)(C)C)C(=O)C2CSC(=O)C2)c1 (centres undefined)
- cell number change: 15.5%

Compound: Cc1ccc(C(=O)C2CCN(S(=O)(=O)c3ccc(C(=O)O)cc3)CC2)cc1
- cell number change: 15.4%
- AC50 [2]: 0.13 µM [rising, full curve, poor fit]

Compound: Cc1ccc(Nc2nc(N)nc(CSC(=S)N3CCOCC3)n2)cc1
- cell number change: -0.5%
- AC50 [1]: 0.0326 µM [falling, full curve, poor fit]

Compound: CCOC(=O)C(=O)N1CCC(Cc2ccccc2)CC1
- cell number change: -11%
- AC50 [2]: 1.64 µM [rising, partial curve, poor fit]

Compound: CCC(=O)NNc1ncnc2c1cnn2C
- cell number change: -65.1%
- AC50 [2]: 25.9 µM [falling, single point]
- AC50 [1]: 29.1 µM [falling, single point]

Compound: COC(=O)c1ccc(S(=O)(=O)N(Cc2cc3cc4c(cc3[nH]c2=O)OCO4)C2CCCCC2)cc1
- AC50 [1]: 29.1 µM [rising, single point]

Compound: COc1ccc(S(=O)(=O)N2CCCCC2)cc1NC(=O)c1c(F)cccc1Cl
- cell number change: 34.8%
- AC50 [2]: 16.4 µM [rising, single point]
- AC50 [1]: 20.6 µM [falling, single point]

Compound: CC(=O)c1ccc(Oc2nc(-c3cccnc3)nc3ccccc23)cc1
- cell number change: -6.85%
- AC50 [2]: 0.82 µM [rising, partial curve, poor fit]
- AC50 [1]: 0.92 µM [rising, full curve]

Compound: C#CCNC(=O)C1=C[C@@H](c2ccc(C(F)(F)F)cc2)[C@H](CCCO)[C@@H](OCC)O1
- cell number change: -18.9%
- AC50 [1]: 4.11 µM [rising, single point]

Compound: COc1ccc(CNC(=O)Nc2ccc3c(c2)N(C)C(=O)CS3)cc1
- cell number change: -27.6%
- AC50 [1]: 29.1 µM [falling, single point]

Compound: FC(F)(F)c1cccc(Cc2noc(CN3CCC(N4CCCCC4)CC3)n2)c1
- cell number change: -7.26%
- AC50 [1]: 2.06 µM [rising, single point]

Compound: O=C(Nc1cc(C(F)(F)F)ccc1-n1cncn1)c1ccc(Cl)cc1
- AC50 [2]: 1.46 µM [rising, partial curve]
- AC50 [1]: 1.3 µM [rising, partial curve]

Compound: CC(=O)NCC(=O)OCC(=O)c1ccc2ccccc2c1
- cell number change: -19.8%
- AC50 [1]: 9.2 µM [falling, single point]

Compound: COC(=O)C(C)(C)ONC(=O)Nc1ccc(Br)cc1
- cell number change: 0.594%

Compound: CC(C)OC(=O)c1cc(NC(=O)C2C3CCC(O3)C2C(=O)O)cc(C(=O)OC(C)C)c1 (centres undefined)
- cell number change: 33.9%
- AC50 [2]: 0.291 µM [rising, full curve, poor fit]
- AC50 [1]: 2.06 µM [rising, partial curve]

Compound: Cc1cccc(C(=O)NC(=S)N2CCN(c3ccc([N+](=O)[O-])cc3)CC2)c1
- cell number change: -18.5%
- AC50 [2]: 0.58 µM [rising, single point]

Compound: CCOc1ccccc1/C=C/c1nc2ccccc2[nH]c1=O
- cell number change: 3.97%
- AC50 [1]: 0.092 µM [rising, partial curve, poor fit]

Compound: COc1ccc(C(=O)Nc2ccc(NC(=O)c3ccccc3F)cn2)cc1
- cell number change: 3.78%

Compound: Oc1cccc(C2c3[nH]c4ccccc4c3CCN2Cc2ccoc2)c1 (centres undefined)
- cell number change: -36.5%
- AC50 [2]: 18.4 µM [falling, single point]
- AC50 [1]: 13 µM [falling, partial curve]

Compound: C=CCNC(=O)Nc1ccc(F)c(Cl)c1
- cell number change: -6.28%

Compound: O=C(O)c1cc2ccccc2c(N=Nc2cccnc2)c1O
- cell number change: -9.52%

Compound: CCCC(=O)N1CCN(c2ccc([N+](=O)[O-])c(NC(C)c3ccccc3)c2)CC1 (centres undefined)
- AC50 [1]: 0.731 µM [falling, full curve]

Compound: COc1cccc(OCC(=O)NNC(=O)c2cnccn2)c1
- cell number change: 7.35%

Compound: Cn1c(N)nc2nc(CCc3ccccc3)c(=O)[nH]c2c1=O
- cell number change: 8.7%
- AC50 [1]: 6.51 µM [falling, partial curve, poor fit]

Compound: CCn1cc(C(=O)NCc2ccccc2OC)c(=O)c2ccc(C)nc21
- cell number change: 2.29%

Compound: Cc1cccc(NC(=O)c2ccc3ccccc3n2)c1C
- cell number change: -8.23%
- AC50 [2]: 0.146 µM [rising, partial curve, poor fit]

Compound: COc1cc2nc(N(CCCN(C)C)C(=O)c3ccc(C(=O)c4ccccc4)cc3)sc2cc1OC
- cell number change: 10.9%
- AC50 [1]: 0.58 µM [falling, single point]

Compound: CCCN(CC(=O)Nc1ccccc1C)C(=O)C1CC(=O)N(Cc2ccccc2)C1 (centres undefined)
- AC50 [1]: 0.58 µM [rising, single point]

Compound: COc1ccc(CC(=O)Nc2ccc3c(c2)CCC3)cc1S(=O)(=O)N1CCOCC1
- cell number change: 1.52%
- AC50 [1]: 6.51 µM [rising, single point]

Compound: CCCN(CCC)C1=CC(=[N+]2CCCC2)CC(C)(C)C1
- cell number change: -59.6%
- AC50 [2]: 14.6 µM [falling, partial curve, poor fit]
- AC50 [1]: 6.51 µM [falling, partial curve]

Compound: CC1CN(C(=O)/C=C/c2ccc3c(c2)OCO3)CC(C)O1 (centres undefined)
- AC50 [1]: 0.00517 µM [rising, full curve, poor fit]

Compound: CC(=O)NCCc1cc2cc(C)c(C)cc2[nH]c1=O
- cell number change: 6.98%
- AC50 [1]: 5.8 µM [rising, partial curve]

Compound: Cc1nc(N2CCOCC2)c(C#N)c(C)c1Br
- cell number change: 31.1%
- AC50 [2]: 1.84 µM [rising, full curve, poor fit]

Compound: CC(=O)N1CC[n+]2c(-c3ccc([N+](=O)[O-])cc3)csc21
- cell number change: 16.4%

Compound: CCOc1ccc(N2C(=O)c3cccnc3C2Nc2ccc(C)cc2)cc1 (centres undefined)
- cell number change: -13.1%
- AC50 [1]: 1.46 µM [rising, single point]

Compound: c1ccc(-n2cnc3cc(NCc4cccs4)ccc32)cc1
- cell number change: -20.9%
- AC50 [1]: 20.6 µM [falling, partial curve, poor fit]

Compound: CCOC(=O)c1c(C)[nH]c(C(=O)COc2ccc3c(c2)OCO3)c1C
- cell number change: 45%
- AC50 [2]: 13 µM [rising, partial curve]
- AC50 [1]: 5.8 µM [rising, full curve]

Compound: COc1cccc(CC(=O)OC(C)C(=O)Nc2ccc(N3CCOCC3)cc2)c1 (centres undefined)
- cell number change: 18.1%
- AC50 [1]: 32.6 µM [rising, single point]

Compound: CC(=O)Nc1ccc(OCC(=O)NC(C)C(C)C)cc1 (centres undefined)
- AC50 [2]: 5.8 µM [falling, single point]
- AC50 [1]: 6.51 µM [falling, single point]

Compound: Cc1ccc(-n2ncc3c(NNC(=O)Cc4ccccc4)ncnc32)cc1
- cell number change: 81.4%
- AC50 [2]: 5.17 µM [rising, partial curve]
